The list shows a part of the results.
compound: Cc1cc(ccc1-c1ccccc1)C(=O)N1CCCN(CC1)C(=O)CCl [compound 10]; assay: probe-labelled cysteine peptide fold change vs DMSO (competition) (log2 fold change); higher = less target engagement (more negative = stronger competition); details: 10 µM; THP-1; incubation time: 4 h
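Further: competitive profiling in live THP-1 cells: cysteine peptides tagged with an iodoacetamide desthiobiotin (IA-DTB) probe, intensity after compound treatment relative to DMSO-treated cells.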

By UniProt entry, the sequences of proteins in these tests, tags left out. Where a name states a change or a piece, a line headed by the entry shows the natural chain unless it says otherwise.
UniProt Q6N043: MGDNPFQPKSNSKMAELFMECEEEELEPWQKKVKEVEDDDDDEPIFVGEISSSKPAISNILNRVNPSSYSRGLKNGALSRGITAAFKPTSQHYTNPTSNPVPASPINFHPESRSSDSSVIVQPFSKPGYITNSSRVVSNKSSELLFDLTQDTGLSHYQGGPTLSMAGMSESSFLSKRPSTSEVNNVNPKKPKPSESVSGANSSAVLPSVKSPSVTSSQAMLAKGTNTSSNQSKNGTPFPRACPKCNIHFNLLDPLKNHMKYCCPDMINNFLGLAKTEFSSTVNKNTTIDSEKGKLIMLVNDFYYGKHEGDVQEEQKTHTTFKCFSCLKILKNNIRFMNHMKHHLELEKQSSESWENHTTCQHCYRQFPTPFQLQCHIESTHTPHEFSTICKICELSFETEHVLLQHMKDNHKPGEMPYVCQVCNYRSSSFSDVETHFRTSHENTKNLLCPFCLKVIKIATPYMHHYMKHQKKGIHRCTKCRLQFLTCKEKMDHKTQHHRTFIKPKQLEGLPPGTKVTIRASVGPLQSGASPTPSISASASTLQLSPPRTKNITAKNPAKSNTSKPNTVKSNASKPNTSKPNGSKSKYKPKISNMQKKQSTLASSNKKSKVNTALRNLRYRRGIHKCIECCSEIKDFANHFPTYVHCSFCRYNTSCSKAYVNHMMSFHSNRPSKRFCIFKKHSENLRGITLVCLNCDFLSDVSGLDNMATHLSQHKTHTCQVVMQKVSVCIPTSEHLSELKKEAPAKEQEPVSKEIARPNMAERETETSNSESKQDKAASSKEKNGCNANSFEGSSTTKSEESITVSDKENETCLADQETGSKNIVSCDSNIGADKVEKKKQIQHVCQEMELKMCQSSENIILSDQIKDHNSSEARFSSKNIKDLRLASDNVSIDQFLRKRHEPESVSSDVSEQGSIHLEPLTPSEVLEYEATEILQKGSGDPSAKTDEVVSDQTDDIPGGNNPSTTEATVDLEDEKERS
UniProt O95159: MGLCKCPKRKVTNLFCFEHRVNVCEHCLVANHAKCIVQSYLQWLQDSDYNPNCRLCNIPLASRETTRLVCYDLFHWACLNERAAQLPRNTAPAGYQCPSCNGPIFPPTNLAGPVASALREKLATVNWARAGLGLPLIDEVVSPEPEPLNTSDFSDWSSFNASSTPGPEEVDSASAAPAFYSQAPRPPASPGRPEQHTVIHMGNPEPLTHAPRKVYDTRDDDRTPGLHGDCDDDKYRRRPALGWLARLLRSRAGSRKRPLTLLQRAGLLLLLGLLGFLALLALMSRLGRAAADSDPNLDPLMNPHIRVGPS
UniProt Q68DK2: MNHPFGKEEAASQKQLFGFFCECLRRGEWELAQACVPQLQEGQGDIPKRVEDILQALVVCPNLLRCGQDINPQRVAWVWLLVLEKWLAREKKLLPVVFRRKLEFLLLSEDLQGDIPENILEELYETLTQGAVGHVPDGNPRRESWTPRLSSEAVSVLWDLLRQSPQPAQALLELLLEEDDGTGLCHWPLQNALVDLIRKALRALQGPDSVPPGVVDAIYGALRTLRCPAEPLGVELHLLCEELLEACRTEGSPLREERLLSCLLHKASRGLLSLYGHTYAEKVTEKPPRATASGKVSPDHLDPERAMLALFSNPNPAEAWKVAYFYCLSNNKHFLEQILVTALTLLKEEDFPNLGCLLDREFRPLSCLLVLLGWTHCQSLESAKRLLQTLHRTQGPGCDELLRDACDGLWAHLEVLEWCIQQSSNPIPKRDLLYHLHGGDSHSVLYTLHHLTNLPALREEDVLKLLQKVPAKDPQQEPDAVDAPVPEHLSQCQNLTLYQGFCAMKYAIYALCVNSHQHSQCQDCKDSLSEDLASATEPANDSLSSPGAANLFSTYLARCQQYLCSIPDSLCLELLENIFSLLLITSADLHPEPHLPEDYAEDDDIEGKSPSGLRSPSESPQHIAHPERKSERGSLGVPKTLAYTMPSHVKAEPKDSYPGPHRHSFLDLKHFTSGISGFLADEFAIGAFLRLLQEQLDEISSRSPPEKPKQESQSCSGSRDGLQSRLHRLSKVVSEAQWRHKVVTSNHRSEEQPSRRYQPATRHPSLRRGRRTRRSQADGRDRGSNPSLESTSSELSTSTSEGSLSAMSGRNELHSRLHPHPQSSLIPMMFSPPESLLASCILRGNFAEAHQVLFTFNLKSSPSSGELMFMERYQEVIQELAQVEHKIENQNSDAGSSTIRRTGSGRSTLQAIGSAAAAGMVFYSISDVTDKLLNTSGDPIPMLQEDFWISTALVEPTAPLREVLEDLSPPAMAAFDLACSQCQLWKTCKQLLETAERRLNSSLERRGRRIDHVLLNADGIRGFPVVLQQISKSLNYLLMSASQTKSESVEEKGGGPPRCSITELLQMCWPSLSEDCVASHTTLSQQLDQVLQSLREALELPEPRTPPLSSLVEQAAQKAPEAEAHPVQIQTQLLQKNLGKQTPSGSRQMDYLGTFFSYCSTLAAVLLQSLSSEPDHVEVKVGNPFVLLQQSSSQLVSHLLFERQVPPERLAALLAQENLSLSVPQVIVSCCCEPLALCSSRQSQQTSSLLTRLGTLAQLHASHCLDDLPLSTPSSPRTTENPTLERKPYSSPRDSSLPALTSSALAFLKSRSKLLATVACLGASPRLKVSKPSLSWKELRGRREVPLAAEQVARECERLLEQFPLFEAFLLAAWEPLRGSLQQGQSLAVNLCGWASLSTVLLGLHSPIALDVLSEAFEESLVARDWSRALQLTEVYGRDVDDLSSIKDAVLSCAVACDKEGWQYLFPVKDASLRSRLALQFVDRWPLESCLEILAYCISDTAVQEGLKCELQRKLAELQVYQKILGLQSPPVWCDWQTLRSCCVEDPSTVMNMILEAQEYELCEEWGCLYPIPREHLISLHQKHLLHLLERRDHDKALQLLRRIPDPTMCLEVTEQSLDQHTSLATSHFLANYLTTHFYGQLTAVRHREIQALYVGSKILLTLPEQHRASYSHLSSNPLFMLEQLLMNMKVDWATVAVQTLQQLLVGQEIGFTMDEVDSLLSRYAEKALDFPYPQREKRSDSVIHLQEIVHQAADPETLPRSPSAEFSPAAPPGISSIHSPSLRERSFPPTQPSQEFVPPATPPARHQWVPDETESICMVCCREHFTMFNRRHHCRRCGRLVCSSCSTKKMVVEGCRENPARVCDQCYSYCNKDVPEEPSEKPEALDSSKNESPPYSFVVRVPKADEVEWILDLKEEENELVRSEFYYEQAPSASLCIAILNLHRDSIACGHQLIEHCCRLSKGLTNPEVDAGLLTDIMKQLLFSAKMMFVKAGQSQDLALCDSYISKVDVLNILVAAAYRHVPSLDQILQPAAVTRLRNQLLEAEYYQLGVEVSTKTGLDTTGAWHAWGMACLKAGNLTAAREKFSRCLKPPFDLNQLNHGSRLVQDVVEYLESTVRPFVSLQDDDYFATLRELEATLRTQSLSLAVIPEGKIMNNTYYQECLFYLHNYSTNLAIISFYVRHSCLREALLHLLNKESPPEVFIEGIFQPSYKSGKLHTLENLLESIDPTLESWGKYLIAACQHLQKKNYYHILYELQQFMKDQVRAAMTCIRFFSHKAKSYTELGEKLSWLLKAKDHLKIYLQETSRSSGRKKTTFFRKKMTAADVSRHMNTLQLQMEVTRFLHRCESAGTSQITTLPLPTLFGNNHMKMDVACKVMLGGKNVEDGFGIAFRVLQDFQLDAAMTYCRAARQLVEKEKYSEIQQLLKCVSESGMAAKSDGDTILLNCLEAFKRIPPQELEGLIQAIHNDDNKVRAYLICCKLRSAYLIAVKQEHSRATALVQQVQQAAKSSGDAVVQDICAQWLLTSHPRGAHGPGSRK
UniProt Q6NUN9: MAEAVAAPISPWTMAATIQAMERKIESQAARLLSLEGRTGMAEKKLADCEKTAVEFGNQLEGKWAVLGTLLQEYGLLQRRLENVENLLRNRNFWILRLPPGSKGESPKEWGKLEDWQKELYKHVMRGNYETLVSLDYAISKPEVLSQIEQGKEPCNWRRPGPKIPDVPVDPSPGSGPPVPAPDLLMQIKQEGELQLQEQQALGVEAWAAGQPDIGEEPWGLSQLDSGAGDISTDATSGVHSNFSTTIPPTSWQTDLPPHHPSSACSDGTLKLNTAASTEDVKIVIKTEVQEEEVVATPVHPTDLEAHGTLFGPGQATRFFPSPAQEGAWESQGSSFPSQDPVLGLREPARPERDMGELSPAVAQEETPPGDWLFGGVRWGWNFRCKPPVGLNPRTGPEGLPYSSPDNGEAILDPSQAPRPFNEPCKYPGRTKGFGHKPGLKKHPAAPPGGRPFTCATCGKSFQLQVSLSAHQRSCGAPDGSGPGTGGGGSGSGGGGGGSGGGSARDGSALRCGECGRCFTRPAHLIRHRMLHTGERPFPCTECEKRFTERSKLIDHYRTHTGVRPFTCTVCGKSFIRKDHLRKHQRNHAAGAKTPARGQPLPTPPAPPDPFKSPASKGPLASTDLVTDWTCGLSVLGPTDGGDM
UniProt Q9UK33: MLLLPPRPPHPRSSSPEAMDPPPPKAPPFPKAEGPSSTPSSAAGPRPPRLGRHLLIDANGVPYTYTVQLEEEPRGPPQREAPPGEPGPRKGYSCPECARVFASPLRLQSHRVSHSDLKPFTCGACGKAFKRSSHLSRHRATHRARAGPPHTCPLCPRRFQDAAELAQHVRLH
UniProt Q9UBW7: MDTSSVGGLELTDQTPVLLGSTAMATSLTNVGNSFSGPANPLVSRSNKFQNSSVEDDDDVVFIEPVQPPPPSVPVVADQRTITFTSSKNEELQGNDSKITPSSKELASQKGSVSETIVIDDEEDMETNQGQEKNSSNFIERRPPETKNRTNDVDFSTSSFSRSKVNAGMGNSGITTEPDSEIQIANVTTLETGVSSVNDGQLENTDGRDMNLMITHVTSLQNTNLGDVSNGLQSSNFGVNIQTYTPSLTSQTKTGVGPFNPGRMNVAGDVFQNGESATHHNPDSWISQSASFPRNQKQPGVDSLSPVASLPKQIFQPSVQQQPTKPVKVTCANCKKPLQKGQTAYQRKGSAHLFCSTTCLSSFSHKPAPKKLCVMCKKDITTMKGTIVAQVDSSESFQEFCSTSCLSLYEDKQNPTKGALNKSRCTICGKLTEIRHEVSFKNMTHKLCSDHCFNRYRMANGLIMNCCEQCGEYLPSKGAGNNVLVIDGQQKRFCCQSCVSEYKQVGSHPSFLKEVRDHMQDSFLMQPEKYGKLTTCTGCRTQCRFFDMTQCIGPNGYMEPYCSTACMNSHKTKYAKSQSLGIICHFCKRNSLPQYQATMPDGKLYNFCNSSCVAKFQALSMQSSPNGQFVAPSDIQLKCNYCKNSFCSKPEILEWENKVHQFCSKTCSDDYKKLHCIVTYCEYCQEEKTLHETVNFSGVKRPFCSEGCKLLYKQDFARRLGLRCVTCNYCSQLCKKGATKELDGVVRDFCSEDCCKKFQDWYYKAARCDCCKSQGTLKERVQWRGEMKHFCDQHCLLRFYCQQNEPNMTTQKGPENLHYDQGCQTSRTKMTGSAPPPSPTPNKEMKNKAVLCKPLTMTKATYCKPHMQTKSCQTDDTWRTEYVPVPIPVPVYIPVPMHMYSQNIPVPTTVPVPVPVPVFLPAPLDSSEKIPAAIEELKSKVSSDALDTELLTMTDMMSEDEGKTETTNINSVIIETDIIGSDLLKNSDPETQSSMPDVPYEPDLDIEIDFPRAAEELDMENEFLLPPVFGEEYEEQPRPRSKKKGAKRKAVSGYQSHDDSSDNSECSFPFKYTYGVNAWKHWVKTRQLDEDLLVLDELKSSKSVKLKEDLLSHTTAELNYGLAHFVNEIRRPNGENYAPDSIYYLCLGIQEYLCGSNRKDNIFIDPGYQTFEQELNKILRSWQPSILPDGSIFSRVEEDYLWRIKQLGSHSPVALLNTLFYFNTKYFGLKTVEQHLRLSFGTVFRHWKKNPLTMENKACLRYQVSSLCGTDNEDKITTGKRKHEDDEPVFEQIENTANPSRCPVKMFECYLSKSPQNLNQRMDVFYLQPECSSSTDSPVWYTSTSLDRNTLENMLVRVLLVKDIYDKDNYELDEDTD
UniProt Q8IZC7: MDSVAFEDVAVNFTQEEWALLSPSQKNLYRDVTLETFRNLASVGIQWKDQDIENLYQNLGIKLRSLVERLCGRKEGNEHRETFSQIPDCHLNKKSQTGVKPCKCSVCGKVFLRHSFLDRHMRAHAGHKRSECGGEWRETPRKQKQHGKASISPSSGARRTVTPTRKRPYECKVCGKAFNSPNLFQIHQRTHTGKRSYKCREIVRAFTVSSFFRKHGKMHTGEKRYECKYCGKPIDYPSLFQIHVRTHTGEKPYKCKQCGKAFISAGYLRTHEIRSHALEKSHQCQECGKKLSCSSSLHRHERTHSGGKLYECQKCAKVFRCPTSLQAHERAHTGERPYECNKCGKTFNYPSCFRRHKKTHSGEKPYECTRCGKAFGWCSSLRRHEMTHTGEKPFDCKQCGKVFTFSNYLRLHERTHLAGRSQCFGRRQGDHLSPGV
UniProt Q9Y5V0: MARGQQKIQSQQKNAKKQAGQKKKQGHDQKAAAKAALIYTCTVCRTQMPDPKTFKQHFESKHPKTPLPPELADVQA

Target | probe-labelled cysteine peptide fold change
ZNF512_Q96ME7_258_ESCSSSFTSIMGYLYHVR (UniProt Q96ME7) | 0.118
ZNF280D_Q6N043_449_NLLCPFCLK (UniProt Q6N043) | -0.0867
ZFPL1_O95159_16_KVTNLFCFEHR (UniProt O95159) | 0.163
ZFYVE26_Q68DK2_60_RVEDILQALVVCPNLLR (UniProt Q68DK2) | -0.114
ZNF330_Q9Y3S2_70_LPICAQCGK (UniProt Q9Y3S2) | 0.0547
ZNF207_O43670_54_LYTGPGLAIHCMQVHK (UniProt O43670) | 0.273
ZNF746_Q6NUN9_385_CKPPVGLNPR (UniProt Q6NUN9) | 0.209
ZNF691_Q5VV52_230_THLEPAPYICCECGK (UniProt Q5VV52) | -0.116
ZFP36L2_P47974_174_CQFAHGFHELR (UniProt P47974) | -0.156
ZNF451_Q9Y4E5_461_SHEGVACVQK (UniProt Q9Y4E5) | -0.282
ZMYM3_Q14202_501_VYPCVWCK (UniProt Q14202) | -0.0763
ZNF618_Q5T7W0_100_DGTSDVPAEICVVIGGVR (UniProt Q5T7W0) | -0.0618
ZNF521_Q96K83_31_TEDGEALDCK (UniProt Q96K83) | -0.0474
ZNF580_Q9UK33_122+125_VSHSDLKPFTCGACGK (UniProt Q9UK33) | 0.0688
ZHX3_Q9H4I2_11_STTPCMIPVK (UniProt Q9H4I2) | -0.138
ZNF496_Q96IT1_134_HCEDPVVIDDGDSPLDQEQEQLPVEPHSDLAK (UniProt Q96IT1) | -0.264
ZNF609_O15014_178_SEGVGTCSEK (UniProt O15014) | 0.1
ZNF274_Q96GC6_565+568_VHSGERPFECQECGR (UniProt Q96GC6) | -0.218

Target | probe-labelled cysteine peptide fold change
ZNF644_Q9H582_1233_MDLTMHSALDCK (UniProt Q9H582) | -0.116
ZMYM3_Q14202_1048_RLVLSESCSR (UniProt Q14202) | 0.0192
ZNF512_Q96ME7_442_CLLCQK (UniProt Q96ME7) | -0.143
ZNF691_Q5VV52_257_THTGERPYECTECGR (UniProt Q5VV52) | 0.142
ZNF638_Q14966_688_EQSLHYGSVLLITELPEDGCTEEDVRK (UniProt Q14966) | 0.19
ZNF292_O60281_982_QENSTVEGSGEALVTDLHTPVEDTCNDLCHPGFQER (UniProt O60281) | -0.534
ZFR_Q96KR1_384+387+391_CELCDVSCTGADAYAAHIR (UniProt Q96KR1) | -0.0237
ZNF362_Q5T0B9_232_VCPLTFFTK (UniProt Q5T0B9) | -0.232
ZMYM2_Q9UBW7_612_LYNFCNSSCVAK (UniProt Q9UBW7) | -0.192
ZNF217_O75362_697_PLNLSVGALHNCPAISLSK (UniProt O75362) | 0.198
ZNF76_P36508_342_HHVVHTHCK (UniProt P36508) | -0.115
ZNF622_Q969S3_69+72_GSATYCTVCSK (UniProt Q969S3) | 0.0753
ZNF101_Q8IZC7_321_CPTSLQAHER (UniProt Q8IZC7) | 0.0329
ZNF706_Q9Y5V0_44_AALIYTCTVCR (UniProt Q9Y5V0) | 0.32
ZFR_Q96KR1_899_CLDALAALR (UniProt Q96KR1) | -0.0904
ZNF408_Q9H9D4_685_CFVVPEEPDAAPSLVLIHK (UniProt Q9H9D4) | -0.15
ZNF687_Q8N1G0_718_CSFSAHQR (UniProt Q8N1G0) | 0.117
ZNF638_Q14966_1077_QNPQNIGDHMLTCSLSPK (UniProt Q14966) | 0.0499

same assay, conditions: 50 µM; THP-1; incubation time: 4 h

Target | probe-labelled cysteine peptide fold change
ZNF512_Q96ME7_258_ESCSSSFTSIMGYLYHVR (UniProt Q96ME7) | 0.185
ZNF280D_Q6N043_449_NLLCPFCLK (UniProt Q6N043) | -0.468
ZFPL1_O95159_16_KVTNLFCFEHR (UniProt O95159) | -0.151
ZFYVE26_Q68DK2_60_RVEDILQALVVCPNLLR (UniProt Q68DK2) | -0.191
ZNF330_Q9Y3S2_70_LPICAQCGK (UniProt Q9Y3S2) | -0.0961
ZNF207_O43670_54_LYTGPGLAIHCMQVHK (UniProt O43670) | 0.252
ZNF746_Q6NUN9_385_CKPPVGLNPR (UniProt Q6NUN9) | -0.409
ZNF691_Q5VV52_230_THLEPAPYICCECGK (UniProt Q5VV52) | -0.983
ZFP36L2_P47974_174_CQFAHGFHELR (UniProt P47974) | 0.0378
ZNF451_Q9Y4E5_461_SHEGVACVQK (UniProt Q9Y4E5) | -0.471
ZMYM3_Q14202_501_VYPCVWCK (UniProt Q14202) | -0.0366
ZNF618_Q5T7W0_100_DGTSDVPAEICVVIGGVR (UniProt Q5T7W0) | -0.217
ZNF521_Q96K83_31_TEDGEALDCK (UniProt Q96K83) | 0.342
ZNF580_Q9UK33_122+125_VSHSDLKPFTCGACGK (UniProt Q9UK33) | -0.295
ZHX3_Q9H4I2_11_STTPCMIPVK (UniProt Q9H4I2) | -0.298
ZNF496_Q96IT1_134_HCEDPVVIDDGDSPLDQEQEQLPVEPHSDLAK (UniProt Q96IT1) | -0.188
ZNF609_O15014_178_SEGVGTCSEK (UniProt O15014) | -0.202
ZNF274_Q96GC6_565+568_VHSGERPFECQECGR (UniProt Q96GC6) | 0.155

Target | probe-labelled cysteine peptide fold change
ZNF644_Q9H582_1233_MDLTMHSALDCK (UniProt Q9H582) | -0.33
ZMYM3_Q14202_1048_RLVLSESCSR (UniProt Q14202) | 0.182
ZNF512_Q96ME7_442_CLLCQK (UniProt Q96ME7) | 0.0478
ZNF691_Q5VV52_257_THTGERPYECTECGR (UniProt Q5VV52) | 0.446
ZNF638_Q14966_688_EQSLHYGSVLLITELPEDGCTEEDVRK (UniProt Q14966) | 0.131
ZNF292_O60281_982_QENSTVEGSGEALVTDLHTPVEDTCNDLCHPGFQER (UniProt O60281) | -0.289
ZFR_Q96KR1_384+387+391_CELCDVSCTGADAYAAHIR (UniProt Q96KR1) | -0.171
ZNF362_Q5T0B9_232_VCPLTFFTK (UniProt Q5T0B9) | -0.0928
ZMYM2_Q9UBW7_612_LYNFCNSSCVAK (UniProt Q9UBW7) | -1.33
ZNF217_O75362_697_PLNLSVGALHNCPAISLSK (UniProt O75362) | 0.102
ZNF76_P36508_342_HHVVHTHCK (UniProt P36508) | -0.0476
ZNF622_Q969S3_69+72_GSATYCTVCSK (UniProt Q969S3) | 0.0378
ZNF101_Q8IZC7_321_CPTSLQAHER (UniProt Q8IZC7) | -0.232
ZNF706_Q9Y5V0_44_AALIYTCTVCR (UniProt Q9Y5V0) | 0.15
ZFR_Q96KR1_899_CLDALAALR (UniProt Q96KR1) | -0.0773
ZNF408_Q9H9D4_685_CFVVPEEPDAAPSLVLIHK (UniProt Q9H9D4) | 0.139
ZNF687_Q8N1G0_718_CSFSAHQR (UniProt Q8N1G0) | -0.117
ZNF638_Q14966_1077_QNPQNIGDHMLTCSLSPK (UniProt Q14966) | -0.319
